Assay results from patent US20070202487A1, “Assay for phospholipidosis” (Cytokinetics, Inc., A Delaware Corporation, priority 2006, published 2007).

Test system: hepatocytes
Protocol: As described further below, in certain embodiments, the number of bright and/or punctate regions in the lysosomal marker image is used as an indication of phospholipidosis.
An exemplary procedure for preparing hepatocyte cultures will now be described. Specifically, the procedure involves the use of primary rat hepatocytes as follows:
11. Twenty three thousand cells/well are plated in a 96 flat well plate pre-coated with collagen I (BD Biosciences, San Jose, Calif. or CellzDirect, Tucson, Ariz.). The plates are incubated at 37° C./5% CO2 for two hours. At the end of the two hour incubation, plating medium is aspirated and cold Hepatozyme medium containing 250 micrograms/ml of Matrigel (BD Biosciences) is added, and the plates are incubated overnight.
The following example is a procedure for fixing and staining primary rat hepatocytes to visualize nuclei, lysotracker, and Alexa 647 nm succinimidyl ester reagent (A647SE). A647SE is used to segment individual hepatocytes within an image. • 1) At 24 hr after compound addition to cells, 50 ul of Hepatozyme medium (prewarmed to 37° C.) containing 187.5 nM of lysotracker dye is added to each well. […]

CCCCc1oc2ccccc2c1C(=O)c1cc(I)c(OCCN(CC)CC)c(I)c1 [aniodarone, amiodarone] was tested, and the “proportion of bright/punctate cells (LysoTracker images)” value was “increase”.
